Measurements taken from paper doi:10.1101/2025.08.07.669188.
These are yes or no findings as the source states them, for the method shown. In cells and extracts the contact can be indirect. Some results given as binding are weak or reduced against the parent protein; the word gives no strength. Where a sequence is shown, tags or fusion partners need not be part of it.

T1: cYFP-STR2 (STR2pro:cYFP-STR2, in M. truncatula roots) (Medicago truncatula) (UniProt A9YWR6)
T1 sequence: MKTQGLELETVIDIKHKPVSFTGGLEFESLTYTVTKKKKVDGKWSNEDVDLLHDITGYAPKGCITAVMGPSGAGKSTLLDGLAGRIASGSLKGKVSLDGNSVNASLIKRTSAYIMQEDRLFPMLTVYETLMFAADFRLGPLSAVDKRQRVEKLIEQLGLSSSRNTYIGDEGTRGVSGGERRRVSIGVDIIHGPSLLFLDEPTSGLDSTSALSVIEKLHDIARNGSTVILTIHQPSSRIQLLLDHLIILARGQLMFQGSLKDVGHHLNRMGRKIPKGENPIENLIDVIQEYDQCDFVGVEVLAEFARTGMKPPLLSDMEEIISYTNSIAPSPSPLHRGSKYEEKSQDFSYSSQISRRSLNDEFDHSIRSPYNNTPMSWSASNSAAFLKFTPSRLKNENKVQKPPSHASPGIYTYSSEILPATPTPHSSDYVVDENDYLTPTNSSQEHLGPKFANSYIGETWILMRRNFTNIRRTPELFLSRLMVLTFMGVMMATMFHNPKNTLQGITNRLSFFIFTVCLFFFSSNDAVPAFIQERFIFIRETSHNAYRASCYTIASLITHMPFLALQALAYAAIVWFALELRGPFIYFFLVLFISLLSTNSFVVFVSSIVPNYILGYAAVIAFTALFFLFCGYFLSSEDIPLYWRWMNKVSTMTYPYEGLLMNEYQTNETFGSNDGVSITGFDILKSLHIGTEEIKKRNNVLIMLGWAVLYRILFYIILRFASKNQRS

T2: nYFP-STR2 (STR2pro:nYFP-STR2, in M. truncatula roots) (Medicago truncatula) (UniProt A9YWR6)
T2 sequence: T1 sequence

B1: nYFP-STR1 (STR1pro:nYFP-STR1, in M. truncatula roots) (protein, UniProt D3GE74 1-817)
chain: MARLERDGTNKSLESLMDSHKPGGTTTNLNQLRTQKSIPGYGLEFTNLSYSIIKKQKKDGVWINKETYLLHDISGQAIKGEIMAIMGPSGAGKSTFLDALAGRIAKGSLQGSVRIDGKPVTTSYMKMVSSYVMQDDQLFPMLTVFETFMFAAEVRLPPSISRDEKKKRVHELLNKLGLQSATHTYIGDEGRRGVSGGERRRVSIGIEIIHKPSLLFLDEPTSGLDSTSAYSVVEKIKDIAQGGSIVLMTIHQPSFRIQMLLDKITILARGRLIYMGRPDALHTHLSGFGRPVPDGENNIEYLLDVITEYDQATVGLDPLVQYQHDGHKPDPAAMTPVPKPPRTPYRRNTPASKHMISLRSQGFTAGTPQPDSSQFGLDDDDNDDDENFDNSLERRSVQTSRNIVTSGVYPRLASQFYQDFSAKDFSVWLYNGVVGTPRRPPSWTPARTPGWTPGKTPLSGPRSFVSNQHSASYQDPYYIQKTNTVVGQSMDYSATSYAPSYEEFEIEEVLDEPDLGPKYANPWLREVAVLSWRTVLNVIRTPELFASREIVLTVMALVLSTIFKNLGDTTFIDINRLLNFYIFAVCLVFFSSNDAVPSFIMERFIFIRETSHNAYRASSYVISSLIVYLPFFAVQGLTFAVITKLMLHLKSNLFNFWMILFASLITTNAYVMLVSALVPSYITGYAVVIATTALFFLTCGFFLKRTQIPAYWKWLHYISAIKYPFEGLLINEFKNNRGCYSGNKADLSPGPLGDVKPSKHHNASLPLNCLLGEDVLSTMDITMESLWYDILILLAWGVLYRFFFYLVLRFYSKNERK
B2: cYFP-STR1 (STR1pro:cYFP-STR1, in M. truncatula roots) (protein, UniProt D3GE74 1-817)
chain: B1 chain

Legend:
[1] = target: T1, cYFP-STR2 (STR2pro:cYFP-STR2, in M. truncatula roots) (Medicago truncatula); experiment: split reporter
[2] = target: T2, nYFP-STR2 (STR2pro:nYFP-STR2, in M. truncatula roots) (Medicago truncatula); experiment: split reporter

Row | Binder | binding [1] | binding [2]
1 | B1 | binds | –
2 | B2 | – | binds
